# In the supplement of paper PMC4604168 (melanoma cell lines):
# The other results are listed elsewhere or left out. Single values are uncertain, as repeats are few or missing.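 The apoptosis fraction was the count of cleaved-PARP antibody-stained nuclei relative to all DNA-stained nuclei, imaged in 1,536-well plates. Screening doses were set so most cells survived, and baseline and induced cleaved-PARP levels vary greatly across cell lines.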
# Tests used:
# Assay in all cases: cleaved PARP positive nuclei fraction relative to DMSO control; melanoma cells; higher = more apoptosis
# Details in all cases: library dose: low library concentration; 72 h
# 501Mel = test system: 501Mel
# A101D = test system: A101D
# A2058 = test system: A2058
# A375 = test system: A375
# C32 = test system: C32
# CBRC008 = test system: CBRC008 (line from a melanoma biopsy)
# CBRC014 = test system: CBRC014 (line from a melanoma biopsy)
# CBRC016 = test system: CBRC016 (line from a melanoma biopsy)
# CBRC017 = test system: CBRC017 (line from a melanoma biopsy)
# CBRC034 = test system: CBRC034 (line from a melanoma biopsy)
# COLO792 = test system: COLO792
# COLO800 = test system: COLO800
# COLO829 = test system: COLO829
# G361 = test system: G361
# IPC-298 = test system: IPC-298
# IST-MEL1 = test system: IST-MEL1
# LB2518-MEL = test system: LB2518-MEL
# LOXIMVI = test system: LOXIMVI
# MEL-HO = test system: MEL-HO
Structure (SMILES),cleaved PARP positive nuclei fraction (501Mel) [%],cleaved PARP positive nuclei fraction (A101D) [%],cleaved PARP positive nuclei fraction (A2058) [%],cleaved PARP positive nuclei fraction (A375) [%],cleaved PARP positive nuclei fraction (C32) [%],cleaved PARP positive nuclei fraction (CBRC008) [%],cleaved PARP positive nuclei fraction (CBRC014) [%],cleaved PARP positive nuclei fraction (CBRC016) [%],cleaved PARP positive nuclei fraction (CBRC017) [%],cleaved PARP positive nuclei fraction (CBRC034) [%],cleaved PARP positive nuclei fraction (COLO792) [%],cleaved PARP positive nuclei fraction (COLO800) [%],cleaved PARP positive nuclei fraction (COLO829) [%],cleaved PARP positive nuclei fraction (G361) [%],cleaved PARP positive nuclei fraction (IPC-298) [%],cleaved PARP positive nuclei fraction (IST-MEL1) [%],cleaved PARP positive nuclei fraction (LB2518-MEL) [%],cleaved PARP positive nuclei fraction (LOXIMVI) [%],cleaved PARP positive nuclei fraction (MEL-HO) [%]
"COc1cc([C@@H]2c3cc4c(cc3[C@@H](O[C@@H]3O[C@@H]5CO[C@@H](C)O[C@H]5[C@H](O)[C@H]3O)[C@H]3COC(=O)[C@H]23)OCO4)cc(OC)c1O [etoposide] + O=C(O)[C@@H]1[O][Sb](=[O])([O][Sb]2(=[O])[O][C@H]([C@H](O)CO)[C@H](O)[C@H](C(=O)O)[O]2)[O][C@H]([C@H](O)CO)[C@@H]1O [stibogluconate] (first compound 0.02 µM, partner dose 2 µM)",156,289,138,269,84.8,115,88.3,130,87.7,218,64.6,83.9,130,118,47.8,85.9,127,123,31
"CC[C@]1(O)C[C@H]2CN(CCc3c([nH]c4ccccc34)[C@@](C(=O)OC)(c3cc4c(cc3OC)N(C=O)[C@H]3[C@@](O)(C(=O)OC)[C@H](OC(C)=O)[C@]5(CC)C=CCN6CC[C@]43[C@@H]65)C2)C1 [vincristine] + CN(c1ncccc1CNc1nc(Nc2ccc3c(c2)CC(=O)N3)ncc1C(F)(F)F)S(C)(=O)=O [PF562271] (first compound 0.0001 µM, partner dose 0.08 µM)",140,278,318,273,95.8,298,85.6,184,80.4,109,98.9,108,132,105,44.6,138,118,136,130
"Cc1ccc(Nc2nccc(N(C)c3ccc4c(C)n(C)nc4c3)n2)cc1S(N)(=O)=O [Pazopanib] + C[C@]1(c2nc3c(C(N)=O)cccc3[nH]2)CCCN1 [Veliparib] (first compound 0.4 µM, partner dose 1.4 µM)",97.9,105,150,159,83.3,105,226,164,123,81.8,58.2,78.1,95.3,277,54.3,66.5,120,86.7,79.2
"Cc1cn(-c2cc(NC(=O)c3ccc(C)c(Nc4nccc(-c5cccnc5)n4)c3)cc(C(F)(F)F)c2)cn1 [nilotinib] + O=C(O)[C@@H]1[O][Sb](=[O])([O][Sb]2(=[O])[O][C@H]([C@H](O)CO)[C@H](O)[C@H](C(=O)O)[O]2)[O][C@H]([C@H](O)CO)[C@@H]1O [stibogluconate] (first compound 0.2 µM, partner dose 2 µM)",245,43.9,75.5,62,72.7,28.4,87.5,264,79.5,85.2,56.5,51.7,48,86.7,88.2,119,82.8,52.6,39.5
"CCCCCCCCCCCCCCCCCCOP(=O)([O-])OC1CC[N+](C)(C)CC1 [Perifosine] + O=C(O)c1ccc2c(c1)nc(Nc1cccc(Cl)c1)c1ccncc12 [CX4945] (first compound 0.4 µM, partner dose 0.4 µM)",128,106,238,191,139,64.4,205,211,182,142,120,114,95.3,116,44.8,215,75.2,32.5,110
"O=C(/C=C/c1cccnc1)NCCCCC1CCN(C(=O)c2ccccc2)CC1 + CS(=O)(=O)c1ccc(C(=O)Nc2ccc(Cl)c(-c3ccccn3)c2)c(Cl)c1 [vismodegib] (first compound 0.01 µM, partner dose 1 µM)",141,133,248,272,65.9,5140,120,1460,535,1200,798,235,261,4110,458,190,254,205,185
"CCCCCCCCCCCCCCCCCCOP(=O)([O-])OC1CC[N+](C)(C)CC1 [Perifosine] + C[C@]1(c2nc3c(C(N)=O)cccc3[nH]2)CCCN1 [Veliparib] (first compound 0.4 µM, partner dose 1.4 µM)",118,46.9,46.7,531,78.5,95.2,113,117,140,152,203,125,69.4,143,94.1,127,148,164,277
"Cc1ccc(Nc2nccc(N(C)c3ccc4c(C)n(C)nc4c3)n2)cc1S(N)(=O)=O [Pazopanib] + CCCS(=O)(=O)Nc1ccc(F)c(C(=O)c2c[nH]c3ncc(Cl)cc23)c1F [PLX4720] (first compound 0.4 µM, partner dose 0.08 µM)",118,170,97,60.3,90.1,74.6,114,68.2,114,24.6,101,109,88.2,78.9,108,59.6,212,111,145
"N#CC[C@H](C1CCCC1)n1cc(-c2ncnc3[nH]ccc23)cn1 [ruxolitinib] + CN1CCN(c2ccc3nc(-c4c(N)c5c(F)cccc5[nH]c4=O)[nH]c3c2)CC1 [Dovitinib] (first compound 1 µM, partner dose 0.1 µM)",96.9,83.6,112,56.2,70.9,71.2,80.1,253,84,351,64.3,88.7,52.2,148,102,61.4,170,42.3,62.7
